Assay results reported in article PMC8162784.

Columns and labels:
myoglobin = test: electrochemical aptasensor (current response); details: 0.2 ng/ml myoglobin vs 50 pg/ml cTnI, negligible current change; 5'-NH2-C6H12; aptamer dissolved in 0.1 M Tris-HCl; [Fe(CN)6]3-/4- redox probe; assay salt, pH and temperature not stated; commercial protein; single-stranded DNA
hemoglobin = test: electrochemical aptasensor (current response); details: 0.2 ng/ml hemoglobin vs 50 pg/ml cTnI, negligible current change; 5'-NH2-C6H12; aptamer dissolved in 0.1 M Tris-HCl; [Fe(CN)6]3-/4- redox probe; assay salt, pH and temperature not stated; commercial protein; single-stranded DNA

“CGTGCAGTACGCCAACCTTTCTCATGCGCGCTGCCCCTCTTA [AcTnI (amino-modified cTnI aptamer)]”: no binding (myoglobin); no binding (hemoglobin).

Construct, isoform or probe ends are uncertain for at least one entry. Negatives hold for the conditions tested.
